# Results deposited as PubChem BioAssay AID504784 (Drosophila RNAi Screening Center, 2011).
# Assay: 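Search for regulators of lipid droplet storage in oleate-fed fly cells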 (primary screen)
# Cell system: Drosophila Kc167 embryonic cells
# Reagents: long dsRNA against Drosophila genes, about 250 ng dsRNA per well
# Timing: 4 days
# Challenge: cells fed 400 µM oleic acid bound to BSA
# Measured: 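Microscope images give a droplet-to-nucleus area ratio, taken as log and converted to a screen-wide B-score; higher values mean greater lipid storage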
# Scale: droplet/nuclear area B-score: higher = more stored lipid (overstorage)
# The screen tested about 17,000 reagents; this is an unselected part of those that have a named target and a result. 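Each column is one replicate's B-score; the combined score over replicates was not deposited, so single values may mislead.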 A plus sign joins genes that one reagent is predicted to hit. Reagent sequences are not shown.
Gene,dsRNA,"droplet/nuclear area B-score, replicate 1","droplet/nuclear area B-score, replicate 2","droplet/nuclear area B-score, replicate 3"
prod,DRSC07667,1.43,1.07,
Ids,DRSC08222,0.102,-0.73,
twy,DRSC10562,-0.0217,-1.43,
ssh,DRSC16730,1.16,1.49,
Ddrgk1,DRSC15897,2.64,0.911,
CG32240,DRSC08093,-0.318,-0.00954,
CG10357,DRSC08155,-0.703,0.86,
clt,DRSC04621,0.00885,0.868,
CG12769,DRSC06167,0.243,-0.152,
l(3)mbn,DRSC08793,-1.86,0.868,
CG30087,DRSC21677,-0.00121,0.357,
CG34384,DRSC14855,0.408,2.78,
CG34384,DRSC15444,-0.517,0.239,
CG34384,DRSC16575,-0.319,0.0104,
CG8888,DRSC07294,-4.53,0.725,
CG8888,DRSC07295,0.777,-1.71,
CG7953,DRSC01902,0.317,0.107,
nrm,DRSC11599,-0.406,0.144,
nrm,DRSC11897,-1.57,-1.01,
Tsp66A + CG42661 + CG42660,DRSC10233,-0.243,-0.192,
CG13438,DRSC06398,0.122,-0.4,
CG32147,DRSC09346,0.13,-0.939,
OXA1L,DRSC09672,3.72,2.18,
CG32642,DRSC18959,1.2,2.08,
faf,DRSC16942,1.71,0.809,
Targ,DRSC06206,0.907,-0.712,
CG31872,DRSC02568,-0.798,0.0711,
CG31872,DRSC02572,-0.964,-1.17,
Drs,DRSC08657,-0.667,-0.331,
Zip42C.2,DRSC05004,0.721,-0.0493,
Erk7,DRSC18127,-0.00991,-1.65,0.962
Erk7,DRSC18227,0.138,-0.0803,-0.693
Erk7,DRSC21895,-0.748,-0.129,
CG34353,DRSC14493,-0.398,-2.82,
CG34353,DRSC14517,1.31,0.606,
CG34353,DRSC14563,0.453,0.566,
CG34353,DRSC15837,-0.0247,0.292,
CG34353,DRSC22429,0.474,0.068,
CG6610,DRSC10674,-1.88,-0.616,
Brca2,DRSC04219,-1.36,1.2,
Brca2,DRSC04220,-0.452,-0.998,
CG14450,DRSC11707,0.893,1.06,
CG3036,DRSC00260,-1.05,1.43,
CG3036,DRSC00562,-0.199,-1,
CG32110,DRSC09220,1.84,2.19,
CG31883,DRSC02561,0.48,0.272,
CG15572,DRSC18060,-0.441,-0.177,
fd3F + CG42499 (retired record),DRSC18160,0.241,0.59,
fd3F + CG42499 (retired record),DRSC18161,0.624,2.1,
Gbeta13F,DRSC20247,-0.633,-1.02,-0.758
Oatp58Da,DRSC04365,-0.514,-0.655,
CG10395,DRSC04840,-1.57,-1.87,

Records above whose gene name begins with E or e:
Gene,dsRNA,"droplet/nuclear area B-score, replicate 1","droplet/nuclear area B-score, replicate 2","droplet/nuclear area B-score, replicate 3"
Erk7,DRSC18127,-0.00991,-1.65,0.962
Erk7,DRSC18227,0.138,-0.0803,-0.693
Erk7,DRSC21895,-0.748,-0.129,

Further results follow:
Gene,dsRNA,"droplet/nuclear area B-score, replicate 1","droplet/nuclear area B-score, replicate 2","droplet/nuclear area B-score, replicate 3"
CG33459,DRSC05615,3.29,-1.12,
l(3)76BDm,DRSC11047,2.16,-1.9,0.429
CG6661,DRSC10687,-1.05,-1.53,0.599
CG32391,DRSC08865,1.49,3.18,
CG14227,DRSC19584,0.964,0.411,
Nup54,DRSC07282,-0.0811,-0.588,
tomboy20,DRSC14913,-0.00961,3.44,
18w,DRSC05029,-0.656,0.18,
RNF220,DRSC15652,0.667,-0.235,
CG17325 + CG42305,DRSC02602,1.41,-0.00573,
Ak3,DRSC16075,-0.255,0.0355,
Su(var)3-9,DRSC14484,0.825,1.13,
Pif1A,DRSC14383,-0.678,-0.755,
CG13457,DRSC10004,0.966,1.74,
Fum4,DRSC22577,-0.982,1.27,
DCTN5-p25,DRSC03525,0.42,1.3,
Ldsdh1,DRSC18219,-0.101,-1.5,
tut,DRSC08909,-0.835,-0.925,
org-1,DRSC18810,-0.813,0.149,
org-1,DRSC22974,1,0.0246,
ltl,DRSC10206,-1.17,0.968,
ltl,DRSC10870,2.25,-0.41,
CG8414,DRSC07168,-0.25,1.13,
loco,DRSC15202,0.17,0.702,
loco,DRSC16989,4.83,0.121,
ppk7,DRSC03236,0.0586,-0.546,
Cdk8,DRSC11113,0.0796,-0.107,
CG5096,DRSC02813,-0.0259,-3.93,
CG6409,DRSC10630,-1.41,0.0456,-1.47
CG6409,DRSC22330,-1.04,-0.816,
Mis12,DRSC10299,0.824,1.32,
